Reference: US11839207B1, “Essential oil-containing formulation for insecticide use, fertilizer application, and/or fertilizer coating” (priority 2019, dated 2023)
Some entries share one result that the patent states for a list of compounds. For at least one compound, name, drawing or mass did not settle the structure.

System: mosquitoes
Experiment: Field repellency test, human landing catch (HLC) method
Assay type: in vivo
Details: human landing catch on lower leg; 1 ml per 90 square inches
Protocol: Additional testing was conducted comparing the inventive formulation to DEET for the purposes of comparing insect repellency. In many insect repellency studies, there is often a lack of side-by-side comparisons for two or more insect repellents. The study conducted in connection with the inventive formulation sought to address this problem by directly comparing the two insect repellents based on the same active contents, i.e., 15% by weight. The study was conducted using both field testing and laboratory conditions. […] Under laboratory conditions, the efficacy of mosquito repellents is typically evaluated in the so-called “arm-in-cage” (AIC) test. […] In the field, similar endpoints may be determined on the basis of mosquitoes landing or biting on an exposed skin area, usually the lower leg, while the mosquitoes are collected by aspiration allowing for the identification of the mosquito species in a laboratory. […] The application volume was estimated on the basis of the surface area, calculated as the average of the circumferences just below the knee, the calf and the ankle, multiplied by the length of the lower leg, measured from below the knee to the ankle. […] Raw data was recorded on paper forms. […] The endpoint measured in the experiments was the number of mosquitoes landing on the bare skin during each exposure period. […]

CCN(CC)C(=O)c1cccc(C)c1 [15% DEET, DEET]
CPTs measured in the field: at least 6 hours
